# Assay results taken from PubChem BioAssay AID1471 (National Center for Advancing Translational Sciences (NCATS), 2008).
# The whole screen tested about 230,000 compounds, of which about 310 (0.13%) were called active. About 2% were inconclusive and are not listed. Calls follow the shape of the dose curve; as a rule, active = well fitted activation curve with a large enough effect; inconclusive = small, poorly fitted or top-dose-only effect; inactive = no such curve, though single readings can be large or run the other way. Only a part is listed here, and it is no random draw. The source gives no active or inactive call for entries shown without one. A structure can be active in one record and inactive in another.
# Assay: qHTS Multiplex Assay to Identify Dual Action Probes in a Cell Model of Huntington: Cytoprotection (ATP); also: nearly all actives have a fitted effect of over 45% in size;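 as to cytoprotection (ATP increase): toxic huntingtin expression switched on by the ecdysone agonist tebufenozide; % of control where 0% means no effect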
# Conditions: PC12 HTT-Q103 induced, ATP luminescence, 40 h; cytoprotection (ATP increase): at 56.4 µM (top of the series) unless noted
# Method in brief: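 Cells were plated at 1500 per well in phenol red-free DMEM with 5% equine and 5% calf serum. Tebufenozide (100 nM final) and compounds were added, then ATPlite reagent, and luminescence was read.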
# Potency is read from the fitted curve at half-maximal effect.
Structure (SMILES),Potency,cytoprotection (ATP increase)
Cc1[nH]c2ccccc2c1/C=C/C(=O)c1ccncc1,active: 3.98 µM,
O=C(O)CCCCCCCC(=O)O,,34.7%
CCN(CC)Cc1ccc(Nc2ccnc3cc(Cl)ccc23)cc1O,active: 14.1 µM,
CCCc1ncc(C[n+]2ccccc2C)c(N)n1,,-62.3%
COc1c2c(cc3c1C(CC(=O)c1c(O)c(OC)c4occc4c1OC)[N+](C)(C)CC3)OCO2 (centres undefined),,-32.5%
COc1cccc([C@@H]2Oc3ccc(Br)cc3C(=O)[C@H]2OC(=O)NS(=O)(=O)c2ccc(F)cc2)c1,,-37.1%
COC(=O)[C@@]1(Cc2ccc(OC)cc2)[C@H]2c3cc(C(=O)N4CCCC4)n(CCc4ccc(O)c(O)c4)c3C[C@H]2CN1C(=O)c1ccccc1,active: 11.2 µM,
CO[C@@H]1COC(=O)C/C=C\[C@@H](C)[C@H](OC)COC(=O)[C@H](COCc2ccccc2)NC(=O)C/C=C\[C@H]1C,active: 3.16 µM,
CCCCCCOc1ccc(N2C(=O)CC(S/C(N)=N/N=C(\C)c3cccs3)C2=O)cc1 (centres undefined),active: 0.794 µM,
COc1ccc(C(=O)C2CCN(C(=S)Nc3ccc(F)cc3)CC2)cc1,active: 2.51 µM,
O=C(O)c1cccnc1SC1CC(=O)N(c2cccc(C(F)(F)F)c2)C1=O (centres undefined),,331% [at 10 µM]
Cc1ccccc1-c1ccc2ncnc(-n3ccnc3)c2c1,active: 1 µM,
Clc1ccc2c(c1)C(N1CCNCC1)=Nc1ccccc1O2,active: 0.355 µM,
CCCS(=O)(=O)N1CCC(C(=O)NCCCN(CC)c2cccc(C)c2)CC1,,313% [at 10 µM]
Cc1noc(C)c1C(=O)N(CC(=O)NC1CCCC1)Cc1ccccc1F,,411% [at 10 µM]
Cc1ccc(Cl)c(Nc2ccccc2C(=O)O)c1Cl,,11.7%
C[C@]12O[C@H]1[C@@H](O)C(Br)=C(CO)[C@H]2O,,-15.8%
O=C(CN1CCCCCC1)NCC1CCCO1 (centres undefined),active: 2.24 µM,
COc1cc2c(c(OC)c1OC)C(c1ccc3c(c1)OCO3)CC(=O)O2 (centres undefined),,-54.8%
CN1CCN(c2nc3cc(C(F)(F)F)ccc3n3cccc23)CC1,,-30.1%
Cc1cc(/C=C/c2ccc3cc(N(C)C)ccc3[n+]2C)c(C)n1-c1ccccc1,,-323%
O=C(CSc1c2c(nc3ccc(Cl)cc13)CCCC2)NCCCN1CCOCC1,,-145%
Cn1cc([N+](=O)[O-])c(C(=O)Nc2ccn(Cc3c(F)c(F)cc(F)c3F)n2)n1,active: 10 µM,

Structure (SMILES),Potency,cytoprotection (ATP increase)
CC(=O)Nc1ccc(C(=O)/C=C/c2ccc[nH]2)cc1,,285% [at 10 µM]
COc1ccc2c(c1)O[C@H](c1ccc3c(c1)OCO3)[C@@H](OC(=O)NC1CCCC1)C2=O,,-37.4%
CN(C)c1ccc(-c2ccc3ncnc(-n4ccnc4)c3c2)cc1,active: 3.16 µM,
O=c1cc(-c2ccccc2O)oc2c1ccc1ccccc12,active: 0.447 µM,
COC(=O)[C@@H](NC(=O)O[C@@H]1C(=O)c2cc(OC)ccc2O[C@H]1c1cccc(OC)c1)C(C)C,,-45.7%
COc1ccc(-c2c(C)cc3oc(=O)cc(-c4ccccc4)c3c2C)cc1OC,,-116%
CC1(C)C(O)C=C[C@@]2(C)C1CC(=O)O[C@@]1(C)C3=CC(=O)OC(c4ccoc4)[C@]3(C)CCC21 (some centres undefined),,35.1%
O=[N+]([O-])c1cccc(CSc2ncnc3ccccc23)c1,active: 2.24 µM,
CCc1cc(C(=O)c2ccc(OC)cc2)c(N)s1,,253% [at 10 µM]
CCOC(=O)c1nnc(-c2ccc(C)cc2)nc1Oc1ccccc1Cl,,376% [at 10 µM]
CC(=O)c1ccc(-c2ccc(-c3cc(=O)oc4c(C(C)C)ccc(C)c34)cc2)cc1,,54.8%
CCCCC[C@H](O)/C=C/[C@H]1[C@H](O)CC(O)[C@@H]1C/C=C\CCCC(=O)O (some centres undefined),,-4.55%
Fc1ccc(/C=N/N2CCOCC2)c(F)c1,active: 0.708 µM,
CN(Cc1ccccc1)C(=O)[C@H](Cc1ccc2ccccc2c1)NC(=O)[C@@H]1CCCN1C(=O)Nc1ccccc1[N+](=O)[O-],,-77.7%
COc1ccc(C2/C=C\CN(CC(C)C)CC(=O)N2Cc2cccc(F)c2)cc1 (centres undefined),,-69.5%
COc1cc(-c2cccc([C@H]3[C@@H]4C=CC[C@@H](C)[C@@H]4C(=O)N3Cc3ccccc3)c2)cc(OC)c1OC,,-126%
CSCCC(=O)N1CCCC(CNC(=O)c2ccccc2Cl)C1 (centres undefined),active: 2.82 µM,
CC1(OC(=O)c2ccco2)C(=O)C=C2C=C(C3CC3)OC=C2C1=O (centres undefined),,33.7%
CCN(CC)CC1CCN(c2ncc3ncnc(Nc4ccc(F)c(Cl)c4)c3n2)CC1,,-324%
CN(C)CC/C=C1\c2ccccc2Sc2ccc(Cl)cc21,,-33.4%
O=C(/C=C/c1ccc(O)c(O)c1)OCCc1ccccc1,,67.7%
CCCCCCOc1ccc(C(=O)n2cnc(N)n2)cc1,active: 12.6 µM,
COc1ccc2[nH]c(-c3ccc(F)cc3F)cc(=O)c2c1,,-165%

Structure (SMILES),Potency,cytoprotection (ATP increase)
CCCCc1nnc(NC(=O)CSc2nc(N)cc(=O)[nH]2)s1,active: 3.16 µM,
CC(C)NC[C@@H](O)COc1cccc2ccccc12,,-78.2%
Cc1ccc(C(=O)NNC(=O)CCCN2C(=O)/C(=C/c3ccccc3Cl)SC2=S)cc1,,279% [at 10 µM]
O=C(CNC(=O)c1cccc(F)c1)OCC(=O)N1CCCCC1,,298% [at 10 µM]
Cc1cccc(NC(=O)CSc2nnc(-c3ccccc3C)o2)c1,,295% [at 1.9 µM]
CC(C)(Oc1ccc(Cl)cc1)C(=O)NC1CCSC1=O (centres undefined),,235% [at 10 µM]
Nc1ccc(C(=O)NCC(=O)O)cc1,active: 3.16 µM,
COC(=O)c1[nH]c2ccc(C)cc2c1NC(=O)CN1CCN(c2ccc(F)cc2)CC1,active: 1.58 µM,
CCCCCCCC(=O)OCCOC(=O)CCCCCCC,,-13.2%
CC(C)c1c(O)ccc2c1CCC1C(C)(C)CCC[C@@]21C (some centres undefined),,-331%
COc1cccc(NC(=O)Cn2c(=O)n(CCC(=O)NCc3ccco3)c(=O)c3ccccc32)c1,active: 3.16 µM,
C=C1c2cccc(O)c2C(O)=C2C(=O)[C@]3(O)C(O)=C(C(N)=O)C(=O)C(N(C)C)C3C(O)C12 (some centres undefined),,-42.6%
CC(=O)OCOC(=O)CN(CC(=O)OCOC(C)=O)c1ccccc1OCCOc1ccccc1N(CC(=O)OCOC(C)=O)CC(=O)OCOC(C)=O,,-23.8%
NC(N)=N/N=C\c1c(Cl)cccc1Cl,,-45.3%
COc1ccc(-c2nc3c(c4nnc(SC(C)C(=O)Nc5ccccc5)n24)COC(C)(C)C3)cc1 (centres undefined),,310% [at 10 µM]
CCN(Cc1ccncc1)C(=O)C(CO)c1ccccc1 (centres undefined),,-78.5%
O=C1OCCN1C(=O)[C@H]1[C@H](c2ccc(Cl)cc2)C(c2cccc(Cl)c2)=NN1c1ccccc1,,-184%
CC1=C(Cl)C2=NS(=O)(=O)CCN2C=C1Cl,,212% [at 10 µM]
O=Nc1c(-c2c(O)[nH]c3ccccc23)[nH]c2ccccc12,,59%
Cc1cccc(C)c1NC1=NC2(CCCCC2)N=C(N)N1,active: 0.631 µM,
O=c1c(O)cccc2cc(O)c(O)c(O)c12,,-143%
CSc1ncc(CN2CCN(C3CCCC3)C(CCO)C2)cn1 (centres undefined),,199% [at 10 µM]
CC1(C)C(O)CC[C@]2(C)C1CC[C@@]1(C)C2C(=O)C=C2[C@@H]3C[C@@](C)(C(=O)O)CC[C@@]3(C)CCC21C (some centres undefined),,-60.1%

# For reference, part of the list above.
Structure (SMILES),Potency,cytoprotection (ATP increase)
Cc1cccc(NC(=O)CSc2nnc(-c3ccccc3C)o2)c1,,295% [at 1.9 µM]
CC(C)(Oc1ccc(Cl)cc1)C(=O)NC1CCSC1=O (centres undefined),,235% [at 10 µM]

# Following part.

Structure (SMILES),Potency,cytoprotection (ATP increase)
Cc1ccc(CN2C(=O)C[C@@H](NS(=O)(=O)c3ccc4ccccc4c3)C/C=C\C2c2ccc(C)cc2)cc1 (some centres undefined),,-45.9% [at 40.3 µM]
CCCCC[C@H](O)/C=C/[C@@H]1[C@H](C/C=C\CCCC(=O)O)[C@@H](O)C[C@H]1O,,-16.9%
COc1ccc(-c2c(C)cc3oc(=O)cc(-c4ccccc4)c3c2C)cc1,,-116%
N#Cc1ccc(-c2nc3cc(C#N)c(C#N)cc3nc2-c2ccccc2)cc1C#N,active: 2.82 µM,
COc1ccc2c(c1)OCc1c-2oc2cc(OC)ccc12,,-70%
CO/N=C(/C(=O)N[C@H]1C(=O)N2C(C(=O)O)=C(COC(C)=O)CSC12)c1csc(N)n1 (some centres undefined),,-51%
C=C1C[C@H](OC(=O)C(C)(O)CCl)C2C(=C)C(=O)O[C@@H]2C2C1C[C@H](O)[C@]2(O)CCl (some centres undefined),,-358%
Cc1cc(C)c(C(=O)COC(=O)c2cc([N+](=O)[O-])ccc2NCCO)cc1C,,346% [at 1.9 µM]
NC(N)=Nc1nc(CSCC/C(N)=N\S(N)(=O)=O)cs1,,-38.1%
COc1ccc(C2/C=C\CN(S(=O)(=O)c3ccc(C)cc3)CC(=O)N2Cc2cccc(F)c2)cc1 (centres undefined),,-36.9%
COc1ccc2c(c1)O[C@@H](c1cccc(C(F)(F)F)c1)[C@H](OC(=O)Nc1cc(OC)c(OC)c(OC)c1)C2=O,,54.1%
CCCCC/C=C\C/C=C\CCCCCCCCCC(=O)NC(C)C(=O)O (centres undefined),,34.2%
Cn1cc([N+](=O)[O-])c(C(=O)N(Cc2ccccc2)Cc2ccccc2)n1,active: 2.51 µM,
Cc1ccccc1-c1ccc(C(=O)O)s1,,-6.5% [at 96.6 µM]
Cc1cc(=O)oc2cc(O)ccc12,active: 5.62 µM,
OC[C@@H]1[C@@H](c2ccc(F)cc2)C(c2cccc(Cl)c2)=NN1c1ccccc1,,-142%
COc1ccc2c(c1)O[C@@H](c1ccc3c(c1)OCO3)[C@H](OC(=O)NCc1ccc3c(c1)OCO3)C2=O,,-36.9%
COc1ccc(CN(CCN(C)C)c2ccccn2)cc1,,-48.9%
COc1ccccc1[C@H]1C(c2cccc(C)c2)=NN(c2ccccc2)[C@@H]1CO,,-339%
CCC(Sc1nncn1C)C(=O)Nc1ccccc1OC (centres undefined),active: 14.1 µM,
